## Screening data, single-dose tests

Mtb cholesterol medium: 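Whole-cell growth test on Mycobacterium tuberculosis, read after 4 days in a medium based on cholesterol and the lipid DPPC; the read-out is not stated. Concentration: 50 µM. Direction is inferred from retests: higher values go with more growth inhibition. About 69,000 compounds were tested under these conditions; 0.54% (about 370) showed 50% or more at least once.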
Mtb glucose medium: 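Whole-cell growth test on Mycobacterium tuberculosis, read after 3 days in glucose-containing 7H9 medium; the read-out is not stated. Compounds at 50 µM. Higher reads as more growth inhibition (inferred: compounds with an IC50 in retests scored well above the rest). Of about 69,000 compounds tested this way, about 760 (1.1%) reached 50% or more in at least one test.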

Values are the deposited “Percent Effect”, in %. The controls that fix the scale are not given in the record; negative values are as filed. The compounds are a random part of those screened. Two or more numbers in one place are separate tests of the same structure; such repeats can differ widely.

compound	Mtb cholesterol medium	Mtb glucose medium
COc1cc(CNCc2c(C)nn(CC(C)C)c2N(C)C)ccn1	-4.229%	-1.277% and -0.8846%
Cc1cnn(CCC(=O)N2CCOC(c3nc(C(C)(C)C)n[nH]3)C2)c1 (centres undefined)	3.717%	-13.02% and -22.71%
CC(C)c1nc(CN2CCN(C(C)c3nc(C4CC4)no3)CC2)no1 (centres undefined)	-7.787%	8.191%
[H][C@@]12CCCC[C@]1(O)CCN(C(=O)OC)[C@H]2c1ccc2c(c1)OCO2	-14.07%	-10.61%
COc1ccccc1[C@@H]1CN(C(=O)c2csc(C)n2)C[C@H]1C(=O)O	-5.999%	7.497% and -11.48%
CCOC(=O)NCCNC(=O)c1cc(Br)cn1C(C)C	-14.84%	10.63% and 1.175%
Cn1cc(CN2CCCN(C(=O)c3ccc4ccccc4n3)CC2)cn1	2.711%	-8.691%
CCc1noc(C(C)N2CCN(CCN3CCCC3=O)CC2)n1 (centres undefined)	13.85%	34.65% and -1.964%
O=C(O)C(F)(F)F.[H][C@@]12CN(Cc3ccncc3)CC[C@]1([H])CN(c1ncccn1)C2	-8.299%	15.04%
O=C(O)Cn1nc(-c2ccccc2F)ccc1=O	14.86%	23.28%
COc1ccc(NC(=O)CCNc2ncccn2)cn1	-33.34%	-59.24%
COCCC(=O)N1CCCC(c2nc(O)cc(-c3ccncc3)n2)C1 (centres undefined)	-10.86%	-12.71%
CC(=O)N1CCN(c2ccccc2CNc2ccc(C)cn2)CC1	-8.095%	8.998%
CC(c1cccnc1)N(C)Cc1cc(O)c2cc(F)ccc2n1 (centres undefined)	-10.68%	-15.37%
CC(O)c1cn(Cc2ccc(Cl)cc2Cl)nn1 (centres undefined)	-18.37%	4.811% and -20.42%
Cc1nc(COC(=O)c2cccc3c2OCCO3)cs1	-12.18%	2.379%
Cc1cccc(C)c1Nc1noc2c1CN(C(=O)c1ccn(C)n1)CC2	3.761% and 1.036%	-16.82%
COC1(CNC(=O)c2ccc(Cl)c(Cl)c2)CCSC1 (centres undefined)	13.15%	-4.01%
CCOCCC(=O)NCC1CCCO1 (centres undefined)	2.192%	-16.55% and -1.592%
O=C(O)C(F)(F)F.[H][C@]12CCN(C(=O)NC(C)C)C[C@@]1([H])OCCN(Cc1csc(C)n1)C2	-23.49%	-14.85%
CCc1n[nH]c(C2CN(C(=O)c3cncnc3CC)CCO2)n1 (centres undefined)	-28.94%	-19.71%
Cc1csc(CCCNC(=O)[C@H]2CNC[C@@H](C(=O)N3CCCC3)C2)n1	-18.86%	2.279%
CC(C)c1ccc(OCCC(=O)N(C)CC(N)=O)cc1	10.96%	10.93% and 19.12%
COc1cccc(OCC2CCCN(c3cc(C(N)=O)ccn3)C2)c1 (centres undefined)	17.71%	33.22% and 8.695%
CC(C)C(=O)NCCNC(=O)C12CCC(=O)N1c1cc(Cl)ccc1S2 (centres undefined)	-5.537%	-4.397%
CCCNC(=O)NC(=O)CNc1c(F)cccc1N1CCCC1	15.29%	-3.564%
Cc1ccc2nc(C)cc(C(=O)N[C@H]3COC[C@@H]3N3CCOCC3)c2c1	-21.02%	-27.15%
CN1CCN(C(=O)c2nc3c(s2)CCCN3C(=O)C2CC2)CC1.O=C(O)C(F)(F)F	28.25%	27.24% and 30.86%
[H][C@@]12OCCN(C(=O)c3ccc(F)c(OC)c3)[C@@]1([H])CC[C@H]2OCC1CC1	5.524%	-9.072% and 1.709%
CN(CCC#N)C(=O)C(C)(C)Oc1ccc(C(N)=O)cc1	-17.28%	-22.64%
O=C(C1CC(=O)N(c2ccccc2Br)C1)N1CCCCCC1 (centres undefined)	-27.47%	6.776%
COCCCNC(=O)c1cc(-c2cnc(N3CCOCC3)nc2)cn1C.O=C(O)C(F)(F)F	-1.553% and 23.52%	16.74%
CCc1noc(C2CCCCN2C(=O)c2cc(C)on2)n1 (centres undefined)	10.27%	6.962%
CCNC(=O)c1cc(OC)c(OC)cc1N(C)S(C)(=O)=O	-2.16%	-15.25% and 0.08836%
COc1cccc(CC(=O)N2CCC(Cc3nnc(SC)n3C)CC2)c1	-12.13%	-6.805%
Cc1nn(C)c(Cl)c1C1CCCN1C(=O)c1ccc2c(c1)COC2 (centres undefined)	0.3594%	3.64% and -5.48%
CC(=O)c1ccc(-n2c(C)cn(CCS(C)(=O)=O)c2=O)cc1	23.51%	8.56%
[H][C@]12CC[C@]([H])(CN(Cc3ccc(OC)cc3)C1)N(Cc1snnc1C)C2	1.583%	39.91%
Cc1cnc(C)c(N2CCC(c3nnc(CN(C)C)n3C3CC3)CC2)n1	-35.07%	-54.79%
COCC(=O)N1CCCC2(CCN(c3ccsc3)C2=O)C1 (centres undefined)	-21.94%	-18.38%
O=C(O)C(F)(F)F.O=S(=O)(N[C@@H]1CCO[C@]2(CCN(CC3CCOCC3)C2)C1)C1CC1	8.997%	8.032%
C[C@@H]1CN(Cc2ccoc2)C[C@]12CCN(CC(=O)N(C)C)C2=O.O=C(O)C(F)(F)F	-31.18%	2.47%
CCc1cnc(N2CCC(=O)N(CC3CC3)C(C(C)C)C2)nc1 (centres undefined)	-13.74%	-26.49%
CC[C@H](N)C(=O)Nc1nn(CC(F)(F)F)c2cc(OC(C)C)ccc12	-8.374%	-5.103%
CC(C)CC(=O)N1CCN(C(=O)N(C)C)CC2(CC(=O)N(C)C2)C1 (centres undefined)	-0.3% and 1.64%	1.792%

The last 5 entries again:

| compound | Mtb cholesterol medium | Mtb glucose medium |
|---|---|---|
| `O=C(O)C(F)(F)F.O=S(=O)(N[C@@H]1CCO[C@]2(CCN(CC3CCOCC3)C2)C1)C1CC1` | 8.997% | 8.032% |
| `C[C@@H]1CN(Cc2ccoc2)C[C@]12CCN(CC(=O)N(C)C)C2=O.O=C(O)C(F)(F)F` | -31.18% | 2.47% |
| `CCc1cnc(N2CCC(=O)N(CC3CC3)C(C(C)C)C2)nc1` (centres undefined) | -13.74% | -26.49% |
| `CC[C@H](N)C(=O)Nc1nn(CC(F)(F)F)c2cc(OC(C)C)ccc12` | -8.374% | -5.103% |
| `CC(C)CC(=O)N1CCN(C(=O)N(C)C)CC2(CC(=O)N(C)C2)C1` (centres undefined) | -0.3% and 1.64% | 1.792% |

From ChEMBL document CHEMBL3988442, “University of Dundee, Small-Polar-MMV Screening Library” (2021).